Primary screen of a compound library

Data taken from ChEMBL document CHEMBL3988442, “University of Dundee, Small-Polar-MMV Screening Library” (2021).

Mtb cholesterol medium: 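Growth of Mycobacterium tuberculosis over 4 days (cholesterol / DPPC medium with tyloxapol); the read-out is not stated. Tested at 50 µM. Higher reads as more growth inhibition (inferred: compounds with an IC50 in retests scored well above the rest). Size under these conditions: about 69,000 compounds, about 370 of them at 50% or above in at least one test.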
Mtb glucose medium: 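Whole-cell growth test on Mycobacterium tuberculosis, read after 3 days in glucose-containing 7H9 medium; the read-out is not stated. Compounds at 50 µM. The record gives no direction; compounds that gave an IC50 in retests scored well above the rest, so higher reads as more growth inhibition. Size under these conditions: about 69,000 compounds, about 760 of them at 50% or above in at least one test.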

The filed quantity is “Percent Effect” (%).
How 0% and 100% were set is not recorded. Most values in the screen are low, and negative values occur.
The compounds are a random part of those screened.
Two or more numbers in one place are separate tests of the same structure; such repeats can differ widely.

compound | Mtb cholesterol medium | Mtb glucose medium
O=C(CCn1cnnn1)N1CCCC(CO)(CCc2ccccc2)C1 (centres unmarked) | -19.96 | -2.321 & -19.65
COCCN1CCCC(O)(CN2CCCN(c3ncccn3)CC2)C1=O (centres unmarked) | -28.35 | -7.057
Cc1cc(CN2C[C@@H](C)[C@@]3(CCN(CC(=O)N(C)C)C3=O)C2)oc1C.O=C(O)C(F)(F)F | 0.3338 | 1.159 & -0.6139
COc1cccc(-c2n[nH]cc2CNC2CCCN(C)C2)c1 (centres unmarked) | 10.38 | 29.74
CCC(NC(=O)C1CCN(C(=O)C2CC2)CC1)c1cn2cccnc2n1 (centres unmarked) | -6.586 | 11.73
Cn1ccnc1SCC(=O)NCc1ccc2c(c1)CCC(=O)N2 | 1.952 | -16.37
COC(=O)NC1(C(=O)Nc2ccc(-c3ncc[nH]3)cc2)CCCC1 | 17.09 | -2.246
O=S(=O)(NCC1COc2ccccc2C1)N1CCOCC1 (centres unmarked) | -35.16 | -20.24
CN1CCC(c2n[nH]c(=O)n2CC2CCCCC2)CC1 | -3.598 | 4.781
[H][C@]12CC[C@]([H])(CN(Cc3cc(-c4ccccc4)no3)C1)N(CC1CC1)C2 | 40.2 & 53.76 | 63.69
[H][C@]12CC[C@]([H])(CN(c3ncccn3)C1)N(C(=O)CSc1nc(C)n[nH]1)C2 | 4.154 & -1.755 | -7.153
CCOC(=O)c1nnc2ccccc2c1N1CCN(C(C)C)CC1 | 5.854 | 1.581 & 0.4834
NC(=O)c1cn[nH]c1C1CCCN1C(=O)COc1ccccc1 (centres unmarked) | 11.88 | 11.36
Cc1csc(C(C)(C)NCC(=O)N(C)Cc2ccc(C)o2)n1 | 0.6812 | -11.23
OCC1(CC2CCCCO2)CCN(c2cnc3ccccc3n2)CC1 (centres unmarked) | 66.38 | 64.81 & 60.08
CCc1cc(N2CCNCC2)n2nc(C)c(C)c2n1 | 10.5 & 28.7 | 9.654
CCn1nc(C)c2ncnc(N(C)Cc3ccco3)c21 | -12.72 | 1.099
Cc1nc(C2CCCN2CC(=O)NCCOc2ccccc2)no1 (centres unmarked) | 11.52 | 13.59
CC(Cn1cccn1)NC(=O)N(C)Cc1ccc(C(N)=O)cc1 (centres unmarked) | -19.17 | -6.434
CCCc1nc(N2CCCN(c3ccncc3)CC2)c2cnn(C)c2n1 | -2.185 | -17.11
CC(C)N(C)Cc1cnc2n1CCN(C(=O)c1cccs1)C2 | -2.748 | -11.33
[H][C@@]12CCN(C(=O)CN(C)C)C[C@]1(COCC1CC1)CCO2 | 1.992 | -0.5591 & -1.821
CC(=O)N1CCN(Cc2ccc(C)o2)CC2(CC(=O)N(C)C2)C1.O=C(O)C(F)(F)F (centres unmarked) | -8.13 & -17.67 | -15.79
CCCc1noc(CN2CCC(c3ccnn3CCO)CC2)n1 | 1.436 | 23.62
O=C(O)C(F)(F)F.O=C(O)C(F)(F)F.[H][C@@]12CN(Cc3cccs3)C[C@@]1([H])N(Cc1ccncc1)C(=O)CO2 | -27.86 | -25.89
[H][C@@]12CCCO[C@]1([H])[C@H](N(CC)CC)CN2Cc1ccc(C)o1 | -3.75 | -1.175 & -26.74
Cc1ccc(NC(=O)CN[C@H](C(N)=O)C(C)C)cc1F | -26.61 | -6.247 & 5.71
Cc1ccccc1CS(=O)(=O)CC(=O)N(C)Cc1cccc(F)c1 | -7.309 | 28.73 & 1.888
COc1ccncc1NC(=O)C1(c2ccccc2)CC1 | 6.338 | 16
COc1cc(Cl)ccc1C(=O)N1CCCC(c2cc(C)[nH]n2)C1 (centres unmarked) | -19.41 | 20.19
Cn1cc(CN2CCc3onc(C(=O)N4CCCC4)c3C2)cn1.O=C(O)C(F)(F)F | -16.99 | -11.47
COCCN1CC(c2nc(CC3CCN(C)CC3)no2)CCC1=O (centres unmarked) | 17.31 & 1.312 | 11.85
Cc1nn(C)c(C)c1C1CCCN1C(=O)CCNc1ncccn1 (centres unmarked) | 4.135 | 19.26
CCN1CCN(C2CCN(Cc3ccc(Cl)s3)CC2)C1=O | -3.89 | 9.154 & 0.6904
C/C=C(\C)CN1C[C@H](c2cccc(OC)c2)[C@@H](N)C1 | -4.456 | -7.715 & 6.392
CCOc1cccc2c1OCC(C(=O)NC(C)Cn1cccn1)=C2 (centres unmarked) | -29.06 | -34.7
COc1cc(C(N)=O)c(N(C)S(C)(=O)=O)cc1OC | 7.52 | 1.349 & 11.6
CCN(Cc1ccccc1)Cc1nc2c(cnn2C)c(=O)[nH]1 | -7.205 | -30.47
c1ccc(CN2CCC(NCCSc3cnn[nH]3)C2)cc1 (centres unmarked) | -10.73 | 21.78
CSc1ccc(CN2CCC(CCC(=O)Nc3ccccc3)CC2)cc1 | -11.29 & -15.64 | -1.658 & -14.43
O=C(O)C(F)(F)F.O=C1CC(c2ccccc2)C2(CCN(Cc3nccs3)CC2)N1 (centres unmarked) | -11.92 & -4.992 | 4.882
Cc1cc(NC2CCc3ncnn3C2)n2nc(C(F)(F)F)nc2n1 (centres unmarked) | 4.766 | 24.93
CCN(CC(=O)NC)C(=O)Cc1csc(C(C)C)n1 | -16.97 | 26.4
Cc1c(CC(=O)N2CCN(C(C)C)CC2)nnn1-c1ccccc1 | -20.11 | 11.15
c1csc(-c2nnc(CSCCN3CCOCC3)o2)c1 | -6.271 | 5.804 & 7.803
O=C(CCc1cn[nH]c1)N1C[C@@H](CN2CCOCC2)C[C@H](CO)C1 | 3.405 | -20.62
Cc1cc(SCC(N)=O)nc(-c2ccc(F)cc2)n1 | -22.56 | 7.479 & -1.321
Cc1ccc(-c2ccc(Cl)nn2)cc1S(N)(=O)=O | -16.84 | -24.52
COc1ccc(C(=O)NCCC(N)=O)c(I)c1 | -28.13 | -24.06 & -1.874
CCn1cc2c(n1)CN(S(=O)(=O)c1cccnc1)CC2COC.O=C(O)C(F)(F)F (centres unmarked) | -1.657 | -14.05 & -4.487
CS(=O)(=O)N1Cc2nccn2CC(Cn2ncccc2=O)C1 (centres unmarked) | -15.96 | 0.9771
[H][C@@]12CC(=O)/C(=C(\C)NC(=O)c3ccccn3)[C@]1([H])C2(C)C | -0.6594 | 12.25
Cc1nc(CN(C)C2CCN(CCC(=O)N3CCOCC3)C2)no1 (centres unmarked) | -19.37 | 1.912
COCc1noc(C2(c3cccc(Cl)c3)CCOCC2)n1 | -61.11 | -65.06 & 29
CC(C)(C)c1nc(CN2CCN(C(=O)c3cnccn3)CC2)cs1 | -1.947 | 16.8
Cc1ccc(CN2CC[C@@H](NC(=O)c3cccnc3)[C@H](O)C2)s1 | 6.28 | 8.344
Cn1ccnc1SC1CCc2ccccc2NC1=O (centres unmarked) | -20.75 | -30.37
Cc1cc(C)c(CNC(=O)N2CCNC(=O)C2)c(=O)[nH]1 | 4.056 & -15.54 | -19.63
COCCN1CCC2(CC1)CC(NC(=O)CC1CC1)c1ccccc1O2.O=C(O)C(F)(F)F (centres unmarked) | -5.147 | -12.59
COc1ccc(OC2CCN(C(=O)CCc3n[nH]c(N)n3)CC2)cc1 | 27.73 | 24.44
COc1cccc(-c2noc(C3CCN(Cc4ccncc4)C3)n2)c1 (centres unmarked) | 0.883 | 19.76
Cc1cc(C(=O)N2CCC3(CCCN(CC4CC4)C3=O)C2)c(C)n1C (centres unmarked) | -21.33 | -20.54
c1ccc(-c2nc(CNCC3CCCN3c3cccnn3)co2)cc1 (centres unmarked) | -26.73 | -25.09
O=C1CC[C@]2(CC[C@@H](NC(=O)NCc3ccccc3)CC2)N1 | -11.59 | -32.56
O=C(CC(F)(F)F)N1CCC2(CCCN(c3nncs3)C2)C1 (centres unmarked) | -0.2712 | -7.325
O=C(CCc1cscn1)N1CCC(C(=O)O)(c2ccccc2)CC1 | -9.974 | -6.295 & -6.553
CCCc1nc(C)c(CNc2nc(C)nc3oc(C)nc23)s1 | -7.454 | -1.711
O=C(Nc1cccc(N2CCOCC2)c1)N[C@H](CO)c1ccccc1 | 16.03 | 17.53
[H][C@@]12CS(=O)(=O)C[C@]1([H])N(C(=O)CCC(F)(F)F)CCN2Cc1ccncc1 | -40.39 | -36.43
CCCS(=O)(=O)N1CCC2(CC1)CC(=O)N(Cc1cc(F)cc(F)c1)C2 | -28.9 | -8.51
CC1CCN(c2nccn3c(=O)[nH]nc23)CC1 | -16.48 | -11.25
O=C(O)C(F)(F)F.[H][C@@]12OCCN(c3ncc(F)cn3)[C@@]1([H])CC[C@H]2OCC(=O)N(C)C | 16.78 | 7.08
Cc1cc(C(=O)Nc2nnn[nH]2)ccc1I | -8.498 | 1.034
Fc1ccc(CN2CCC(c3nccnc3-n3ccnc3)CC2)cc1 | -15.48 | 3.044
COc1ccc(CN2CCC3(CC(C(=O)NCC(C)C)=NO3)C2)cc1 (centres unmarked) | 13.64 | 0.7411
Cc1nn(C)cc1C(=O)N1CCCC(c2nccn2Cc2cscn2)C1 (centres unmarked) | 1.937 & -2.622 | 7.448
COCCCN(C)c1nc(-c2ccncc2)nc2c1CCN(C(C)=O)C2 | -6.161 | -5.551 & 2.649
Cl.c1cn(-c2cnc(C3CCCNC3)cn2)cn1 (centres unmarked) | -41.48 | -19.13
Cc1cnn(C2CN(Cc3nc(-c4ccccn4)no3)C2)c1 | -39.45 | 0.6231

5 of the entries, repeated:

{"compound": "Cc1cc(C(=O)N2CCC3(CCCN(CC4CC4)C3=O)C2)c(C)n1C", "stereo": "centres unmarked", "Mtb cholesterol medium": -21.33, "Mtb glucose medium": -20.54}
{"compound": "CCCS(=O)(=O)N1CCC2(CC1)CC(=O)N(Cc1cc(F)cc(F)c1)C2", "Mtb cholesterol medium": -28.9, "Mtb glucose medium": -8.51}
{"compound": "COc1ccc(C(=O)NCCC(N)=O)c(I)c1", "Mtb cholesterol medium": -28.13, "Mtb glucose medium": "-24.06 & -1.874"}
{"compound": "Cn1ccnc1SC1CCc2ccccc2NC1=O", "stereo": "centres unmarked", "Mtb cholesterol medium": -20.75, "Mtb glucose medium": -30.37}
{"compound": "OCC1(CC2CCCCO2)CCN(c2cnc3ccccc3n2)CC1", "stereo": "centres unmarked", "Mtb cholesterol medium": 66.38, "Mtb glucose medium": "64.81 & 60.08"}